Results deposited as PubChem BioAssay AID1259405 (NCATS, 2018).
The deposit covers about 50,000 reagents; below is a random part of them. About 4,000 of them (8%) count as active. 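Mouse siRNA library applied to hamster cells; one well for each siRNA.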 The numbers tell different reagents against one gene apart.

Purpose: 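Knock-downs that lift recombinant protein yield in hamster ovary cells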 (primary screen)
Cell system: Chinese hamster CHO-K1 ovary cells with stable secreted eGFP expression
Reagents: single siRNA against mouse genes, 0.8 pmol siRNA per well (2 µl of 400 nM stock)
Duration: 3 days
Measurement: 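Per-well intracellular GFP measured by laser scanning cytometry, plus viability from ATP luminescence, each relative to plate median of non-targeting control wells, in %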
Direction: GFP, % of control: higher = more GFP per well, higher productivity; viability (ATP), % of control: higher = more viable cells (more ATP)
Hit rule: 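Called active when intracellular GFP, relative to negative control, is at or above 120%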

gene symbol	reagent no.	GFP, % of control	viability (ATP), % of control	call
Spc24	1	64.4	88.8	inactive
Spc24	2	103	57	inactive
Spc24	3	62.2	78.3	inactive
Fryl	1	92.8	44	inactive
Fryl	2	121	77.9	active
Fryl	3	64.6	83.1	inactive
Fryl	4	64.9	89.3	inactive
Fryl	5	73.1	97.1	inactive
Fryl	6	77.8	92.4	inactive
Ethe1	1	101	106	inactive
Ethe1	2	112	92.2	inactive
Ethe1	3	89.2	88.1	inactive
BC031181	1	96.9	88.2	inactive
BC031181	2	67	85.2	inactive
BC031181	3	163	114	active
Angptl2	1	144	72.5	active
Angptl2	2	30.7	110	inactive
Pfn2	1	85	75.7	inactive
Pfn2	2	61.3	76.8	inactive
Pfn2	3	77	108	inactive
Pcgf5	1	66.7	59.8	inactive
Pcgf5	2	142	70.7	active
Pcgf5	3	84	97.5	inactive
Vmn2r30	1	80.8	71.6	inactive
Vmn2r30	2	84.7	94.6	inactive
Vmn2r30	3	56.7	61.7	inactive
Nxf2	1	70.2	79.5	inactive
Nxf2	2	69.8	64.1	inactive
Nxf2	3	110	77.7	inactive
Vmn2r57	1	130	149	active
Vmn2r57	2	91.7	58.9	inactive
Vmn2r57	3	54.3	58.1	inactive
Pcnx4	1	59.1	63.3	inactive
Pcnx4	2	21.4	61.3	inactive
Pcnx4	3	88.8	79	inactive
Ucn	1	107	64.4	inactive
Ucn	2	19.6	27.5	inactive
Ucn	3	95.1	106	inactive
Zic2	1	91.4	110	inactive
Zic2	2	71.6	94.6	inactive
Marchf5	1	38	59.8	inactive
Marchf5	2	11.9	19.1	inactive
Marchf5	3	73.2	69.2	inactive
Il1bos	1	77	78.2	inactive
Il1bos	2	30.3	54.4	inactive
Il1bos	3	68.8	83.4	inactive
Tsen15	1	49.8	73.2	inactive
Tsen15	2	83.4	76.2	inactive
Tsen15	3	78.9	105	inactive
Pipox	1	80.8	71.5	inactive
Pipox	2	62.8	55.7	inactive
Pipox	3	91.9	70.1	inactive
Zfp672	1	96.9	90.9	inactive
Zfp672	2	16.7	29.1	inactive
Zfp672	3	85.8	104	inactive
Sccpdh	1	80.8	121	inactive
Sccpdh	2	23.9	18.9	inactive
Sccpdh	3	101	118	inactive
Ugt2b37	1	44.6	61.1	inactive
Ugt2b37	2	93.3	84.7	inactive
Ugt2b37	3	35.9	41.5	inactive
Tas2r136	1	115	79.6	inactive
Tas2r136	2	65.9	80.5	inactive
Tas2r136	3	79.3	37.1	inactive
Spdye4a	1	114	63.9	inactive
Spdye4a	2	79.8	66.5	inactive
Spdye4a	3	52.1	73.3	inactive
Zfp786	1	190	117	active
Zfp786	2	39.6	64.5	inactive
Zfp786	3	117	101	inactive
Cfap100	1	45.1	43.6	inactive
Cfap100	2	73.8	61.4	inactive
Cfap100	3	76.6	86.4	inactive
Scx	1	67.1	74.2	inactive
Scx	2	67.9	65.5	inactive
Scx	3	58.2	65	inactive
Magea5	1	98	89.4	inactive
Magea5	2	67	34.9	inactive
Magea5	3	99.7	46.5	inactive
Stpg2	1	62.8	59.9	inactive
Stpg2	2	51.6	67.7	inactive
Stpg2	3	48.7	71.7	inactive
Sp5	1	82.5	63.1	inactive
Sp5	2	59.6	68.9	inactive
Sp5	3	89.3	79.9	inactive
